Test results published in patent publication US7704994B2, “Benzazepine derivatives for the treatment of neurological disorders” (Glaxo Group Limited, priority 2002, dated 2010).
Some entries share one result that the patent states for a list of compounds. Some compounds share one range, which may span the group rather than tell each member.

The chains behind the UniProt entries cited, without tags or fusion partners. Where a name states a change or a piece, a line headed by the entry shows the natural chain unless it says otherwise.
UniProt Q9Y5N1: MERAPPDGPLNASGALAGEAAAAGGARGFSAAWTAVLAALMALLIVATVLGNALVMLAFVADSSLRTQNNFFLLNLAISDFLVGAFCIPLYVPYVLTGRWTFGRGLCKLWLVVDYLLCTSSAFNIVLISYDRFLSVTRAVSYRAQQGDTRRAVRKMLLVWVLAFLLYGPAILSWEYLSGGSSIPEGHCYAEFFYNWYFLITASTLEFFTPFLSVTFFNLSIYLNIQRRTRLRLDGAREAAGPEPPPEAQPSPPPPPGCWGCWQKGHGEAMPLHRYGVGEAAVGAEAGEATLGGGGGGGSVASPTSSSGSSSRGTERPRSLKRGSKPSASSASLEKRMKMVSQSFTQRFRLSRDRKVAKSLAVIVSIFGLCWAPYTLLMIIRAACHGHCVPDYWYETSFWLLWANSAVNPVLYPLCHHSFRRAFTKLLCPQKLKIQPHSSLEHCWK

Biological target: T1, human histamine H3 receptor (Homo sapiens, UniProt Q9Y5N1)
T1 construct: expressed in transfected cells; host or cells: CHO K1 cells carrying pSwitch, transfected with pGeneH3 and induced with mifepristone; membranes of clone 3H3
Test: Histamine H3 functional antagonist assay
Type: biochemical
Conditions: membranes of CHO K1 cells expressing human histamine H3; [35S]GTPγS SPA; histamine 0.3 μM

Row | SMILES | antagonism (pKb)
1 | O=C(NCC1CC1)c1ccc(Oc2ccc3c(c2)CCN(C2CCC2)CC3)cc1 [Example 130, 4-(3-Cyclobutyl-2,3,4,5-tetrahydro-1H-benzo[d]azepin-7-yloxy)-N-cyclopropylmethyl-benzamide] | 6.5-10.5 pKb
2 | O=C(c1ccc(Oc2ccc3c(c2)CCN(C2CCC2)CC3)cc1)N1CCCC1 [Example 131, 1-[4-(3-Cyclobutyl-2,3,4,5-tetrahydro-1H-benzo[d]azepin-7-yloxy)-phenyl]-1-pyrrolidin-1-yl-methanone] | 6.5-10.5 pKb
3 | O=C(NC1CCC1)c1ccc(Oc2ccc3c(c2)CCN(C2CCC2)CC3)cc1 [Example 132, N-Cyclobutyl-4-(3-Cyclobutyl-2,3,4,5-tetrahydro-1H-benzo[d]azepin-7-yloxy)-benzamide] | 6.5-10.5 pKb
4 | CCN(CC)C(=O)c1ccc(Oc2ccc3c(c2)CCN(C2CCC2)CC3)cc1 [Example 133, 4-(3-Cyclobutyl-2,3,4,5-tetrahydro-1H-benzo[d]azepin-7-yloxy)-N,N-diethyl-benzamide] | 6.5-10.5 pKb
5 | CN(CCC#N)C(=O)c1ccc(Oc2ccc3c(c2)CCN(C2CCC2)CC3)cc1 [Example 134, N-(2-Cyano-ethyl)-4-(3-cyclobutyl-2,3,4,5-tetrahydro-1H-benzo[d]azepin-7-yloxy)-N-methyl-benzamide] | 6.5-10.5 pKb
6 | O=C(c1cccc(Oc2ccc3c(c2)CCN(C2CCC2)CC3)c1)N1CCOCC1 [Example 135, 1-[3-(3-Cyclobutyl-2,3,4,5-tetrahydro-1H-benzo[d]azepin-7-yloxy)-phenyl]-1-morpholin-4-yl-methanone] | 6.5-10.5 pKb
7 | O=C(NCC1CC1)c1cccc(Oc2ccc3c(c2)CCN(C2CCC2)CC3)c1 [Example 136, 3-(3-Cyclobutyl-2,3,4,5-tetrahydro-1H-benzo[d]azepin-7-yloxy)-N-cyclopropylmethyl-benzamide] | 6.5-10.5 pKb
8 | O=S(=O)(c1ccc(Oc2ccc3c(c2)CCN(C2CCC2)CC3)cc1)N1CCOCC1 [Example 137, 3-Cyclobutyl-7-[4-(morpholine-4-sulfonyl)-phenoxy]-2,3,4,5-tetrahydro-1H-benzo[d]azepine] | 6.5-10.5 pKb
9 | CCN(CC)S(=O)(=O)c1ccc(Oc2ccc3c(c2)CCN(C2CCC2)CC3)cc1 [Example 138, 4-(3-Cyclobutyl-2,3,4,5-tetrahydro-1H-benzo[d]azepin-7-yloxy)-N,N-diethyl-benzenesulfonamide] | 6.5-10.5 pKb
10 | c1cc2c(cc1Oc1cnc(N3CCCCC3)nc1)CCN(C1CCC1)CC2 [Example 140, 3-Cyclobutyl-7-{[2-(1-piperidinyl)-5-pyrimidinyl]oxy}-2,3,4,5-tetrahydro-1H-3-benzazepine] | 6.5-10.5 pKb
11 | c1cc2c(cc1Oc1cnc(N3CCCC3)nc1)CCN(C1CCC1)CC2 [Example 141, 3-Cyclobutyl-7-{[2-(1-pyrrolidinyl)-5-pyrimidinyl]oxy}-2,3,4,5-tetrahydro-1H-3-benzazepine] | 6.5-10.5 pKb
12 | O=S1(=O)CCN(c2ncc(Oc3ccc4c(c3)CCN(C3CCC3)CC4)cn2)CC1 [Example 142, 3-Cyclobutyl-7-{[2-(1,1-dioxido-4-thiomorpholinyl)-5-pyrimidinyl]oxy}-2,3,4,5-tetrahydro-1H-3-benzazepine] | 6.5-10.5 pKb
13 | CNc1ncc(Oc2ccc3c(c2)CCN(C2CCC2)CC3)cn1 [Example 143, 5-[(3-Cyclobutyl-2,3,4,5-tetrahydro-1H-3-benzazepin-7-yl)oxy]-N-methyl-2-pyrimidinamine] | 6.5-10.5 pKb
14 | COc1ncc(Oc2ccc3c(c2)CCN(C2CCC2)CC3)cn1 [Example 144, 3-Cyclobutyl-7-{[2-(methyloxy)-5-pyrimidinyl]oxy}-2,3,4,5-tetrahydro-1H-3-benzazepine] | 6.5-10.5 pKb
15 | O=C(c1ccc(N2CCCC2=O)cc1)N1CCC(Oc2ccc3c(c2)CCN(C2CCC2)CC3)CC1 [Example 145, 1-[4-({4-[(3-Cyclobutyl-2,3,4,5-tetrahydro-1H-3-benzazepin-7-yl)oxy]-1-piperidinyl}carbonyl)phenyl]-2-pyrrolidinone] | 6.5-10.5 pKb
16 | CS(=O)(=O)c1cccc(C(=O)N2CCC(Oc3ccc4c(c3)CCN(C3CCC3)CC4)CC2)c1 [Example 146, 3-Cyclobutyl-7-[(1-{[3-(methylsulfonyl)phenyl]carbonyl}-4-piperidinyl)oxy]-2,3,4,5-tetrahydro-1H-3-benzazepine] | 6.5-10.5 pKb
17 | O=C(c1ccc2c(c1)CCCS2(=O)=O)N1CCC(Oc2ccc3c(c2)CCN(C2CCC2)CC3)CC1 [Example 147, 3-Cyclobutyl-7-({1-[(1,1-dioxido-3,4-dihydro-2H-1-benzothiopyran-6-yl)carbonyl]-4-piperidinyl}oxy)-2,3,4,5-tetrahydro-1H-3-benzazepine] | 6.5-10.5 pKb

Row | SMILES | antagonism (pKb)
18 | c1cc2c(cc1OC[C@H]1CCNC1)CCN(C1CCC1)CC2 [Example 148, 3-Cyclobutyl-7-{[(3S)-3-pyrrolidinylmethyl]oxy}-2,3,4,5-tetrahydro-1H-3-benzazepine] | 6.5-10.5 pKb
19 | c1cc2c(cc1OC[C@H]1CCCNC1)CCN(C1CCC1)CC2 [Example 149, 3-Cyclobutyl-7-{[(3S)-3-piperidinylmethyl]oxy}-2,3,4,5-tetrahydro-1H-3-benzazepine] | 6.5-10.5 pKb
20 | O=C(N1CCOCC1)N1CCC[C@H](COc2ccc3c(c2)CCN(C2CCC2)CC3)C1 [Example 151, 3-Cyclobutyl-7-({[(3S)-1-(4-morpholinylcarbonyl)-3-piperidinyl]methyl}oxy)-2,3,4,5-tetrahydro-1H-3-benzazepine] | 6.5-10.5 pKb
21 | O=C(N1CCOCC1)N1CC[C@H](COc2ccc3c(c2)CCN(C2CCC2)CC3)C1 [Example 152, 3-Cyclobutyl-7-({[(3S)-1-(4-morpholinylcarbonyl)-3-pyrrolidinyl]methyl}oxy)-2,3,4,5-tetrahydro-1H-3-benzazepine] | 6.5-10.5 pKb
22 | O=C(N1CCOCC1)N1CCC[C@H](Oc2ccc3c(c2)CCN(C2CCC2)CC3)C1 [Example 153, 3-Cyclobutyl-7-{[(3S)-1-(4-morpholinylcarbonyl)-3-piperidinyl]oxy}-2,3,4,5-tetrahydro-1H-3-benzazepine] | 6.5-10.5 pKb
23 | N#Cc1ccc(C(=O)N2CCC[C@H](COc3ccc4c(c3)CCN(C3CCC3)CC4)C2)cc1 [Example 154, 4-[((3S)-3-{[(3-Cyclobutyl-2,3,4,5-tetrahydro-1H-3-benzazepin-7-yl)oxy]methyl}-1-piperidinyl)carbonyl]benzonitrile] | 6.5-10.5 pKb
24 | N#Cc1ccc(C(=O)N2CC[C@H](COc3ccc4c(c3)CCN(C3CCC3)CC4)C2)cc1 [Example 155, 4-[((3S)-3-{[(3-Cyclobutyl-2,3,4,5-tetrahydro-1H-3-benzazepin-7-yl)oxy]methyl}-1-pyrrolidinyl)carbonyl]benzonitrile] | 6.5-10.5 pKb
25 | N#Cc1ccc(C(=O)N2CCC[C@H](Oc3ccc4c(c3)CCN(C3CCC3)CC4)C2)cc1 [Example 156, 4-({(3S)-3-[(3-Cyclobutyl-2,3,4,5-tetrahydro-1H-3-benzazepin-7-yl)oxy]-1-piperidinyl}carbonyl)benzonitrile] | 6.5-10.5 pKb
26 | O=C(C1CCOCC1)N1CC[C@H](COc2ccc3c(c2)CCN(C2CCC2)CC3)C1 [Example 157, 3-Cyclobutyl-7-({[(3S)-1-(tetrahydro-2H-pyran-4-ylcarbonyl)-3-pyrrolidinyl]methyl}oxy)-2,3,4,5-tetrahydro-1H-3-benzazepine] | 6.5-10.5 pKb
27 | O=C(C1CCOCC1)N1CCC[C@H](COc2ccc3c(c2)CCN(C2CCC2)CC3)C1 [Example 158, 3-Cyclobutyl-7-({[(3S)-1-(tetrahydro-2H-pyran-4-ylcarbonyl)-3-piperidinyl]methyl}oxy)-2,3,4,5-tetrahydro-1H-3-benzazepine] | 6.5-10.5 pKb
28 | O=C(C1CCOCC1)N1CCC[C@H](Oc2ccc3c(c2)CCN(C2CCC2)CC3)C1 [Example 159, 3-Cyclobutyl-7-{[(3S)-1-(tetrahydro-2H-pyran-4-ylcarbonyl)-3-piperidinyl]oxy}-2,3,4,5-tetrahydro-1H-3-benzazepine] | 6.5-10.5 pKb
29 | N#Cc1ccc(N2CCC(Oc3ccc4c(c3)CCN(C3CCC3)CC4)CC2)nc1 [Example 160, 6-{4-[(3-Cyclobutyl-2,3,4,5-tetrahydro-1H-3-benzazepin-7-yl)oxy]-1-piperidinyl}-3-pyridinecarbonitrile] | 6.5-10.5 pKb
30 | O=C(NCC1CC1)c1ccc(N2CCC(Oc3ccc4c(c3)CCN(C3CCC3)CC4)CC2)nc1 [Example 161, 6-{4-[(3-Cyclobutyl-2,3,4,5-tetrahydro-1H-3-benzazepin-7-yl)oxy]-1-piperidinyl}-N-(cyclopropylmethyl)-3-pyridinecarboxamide] | 6.5-10.5 pKb
31 | O=C(c1ccc(N2CCC(Oc3ccc4c(c3)CCN(C3CCC3)CC4)CC2)nc1)N1CCC1 [Example 162, 7-({1-[5-(1-Azetidinylcarbonyl)-2-pyridinyl]-4-piperidinyl}oxy)-3-cyclobutyl-2,3,4,5-tetrahydro-1H-3-benzazepine] | 6.5-10.5 pKb
32 | O=C(c1ccc(N2CCC(Oc3ccc4c(c3)CCN(C3CCC3)CC4)CC2)nc1)N1CCOCC1 [Example 163, 3-Cyclobutyl-7-({1-[5-(4-morpholinylcarbonyl)-2-pyridinyl]-4-piperidinyl}oxy)-2,3,4,5-tetrahydro-1H-3-benzazepine] | 6.5-10.5 pKb
33 | CNC(=O)c1ccc(N2CCC(Oc3ccc4c(c3)CCN(C3CCC3)CC4)CC2)nc1 [Example 164, 6-{4-[(3-Cyclobutyl-2,3,4,5-tetrahydro-1H-3-benzazepin-7-yl)oxy]-1-piperidinyl}-N-methyl-3-pyridinecarboxamide] | 6.5-10.5 pKb
34 | N#Cc1ccnc(N2CCC(Oc3ccc4c(c3)CCN(C3CCC3)CC4)CC2)c1 [Example 165, 2-{4-[(3-Cyclobutyl-2,3,4,5-tetrahydro-1H-3-benzazepin-7-yl)oxy]-1-piperidinyl}-4-pyridinecarbonitrile] | 6.5-10.5 pKb
